These are yes or no findings as the source states them, for the method shown. For part of these data: In cells and extracts the contact can be indirect. Some binding calls cover weakened binding; strength is not graded here. For part of these data: Sequences can lack the tags named with a protein.
What was measured:
[1] = biological target: T1, human Wuho protein (hWH), endogenous (human (endogenous in HCT116)) (UniProt P57081); assay: co-IP; endogenous proteins, HCT116 p53+/+ lysate in RIPA buffer, Protein A magnetic beads with anti-hWH or anti-FEN1 antibody, 0.1 U/ml micrococcal nuclease, 4°C overnight, western blot
T1 sequence: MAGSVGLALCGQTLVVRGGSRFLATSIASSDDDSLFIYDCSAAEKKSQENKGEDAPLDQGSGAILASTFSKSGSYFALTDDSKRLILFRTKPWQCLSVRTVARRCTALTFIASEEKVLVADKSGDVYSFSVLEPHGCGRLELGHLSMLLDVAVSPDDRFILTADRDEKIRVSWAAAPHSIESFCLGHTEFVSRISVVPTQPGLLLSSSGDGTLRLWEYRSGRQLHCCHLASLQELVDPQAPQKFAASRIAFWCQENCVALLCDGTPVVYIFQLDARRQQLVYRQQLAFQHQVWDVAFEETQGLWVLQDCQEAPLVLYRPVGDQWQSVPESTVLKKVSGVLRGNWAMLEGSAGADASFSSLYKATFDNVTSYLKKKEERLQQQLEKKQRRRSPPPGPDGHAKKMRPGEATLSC

By UniProt entry, the sequences of proteins in these tests, tags left out.
UniProt P39748: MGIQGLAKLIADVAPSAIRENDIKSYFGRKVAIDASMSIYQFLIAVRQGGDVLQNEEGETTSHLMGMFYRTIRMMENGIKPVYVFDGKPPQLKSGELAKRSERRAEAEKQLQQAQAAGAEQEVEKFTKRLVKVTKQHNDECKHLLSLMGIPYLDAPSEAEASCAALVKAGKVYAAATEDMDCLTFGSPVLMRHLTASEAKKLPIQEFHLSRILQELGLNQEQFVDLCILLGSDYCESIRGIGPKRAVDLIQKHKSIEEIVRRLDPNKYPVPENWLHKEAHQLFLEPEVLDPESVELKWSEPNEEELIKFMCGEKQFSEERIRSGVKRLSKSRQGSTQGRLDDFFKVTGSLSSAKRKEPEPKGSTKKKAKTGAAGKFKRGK
UniProt P12004: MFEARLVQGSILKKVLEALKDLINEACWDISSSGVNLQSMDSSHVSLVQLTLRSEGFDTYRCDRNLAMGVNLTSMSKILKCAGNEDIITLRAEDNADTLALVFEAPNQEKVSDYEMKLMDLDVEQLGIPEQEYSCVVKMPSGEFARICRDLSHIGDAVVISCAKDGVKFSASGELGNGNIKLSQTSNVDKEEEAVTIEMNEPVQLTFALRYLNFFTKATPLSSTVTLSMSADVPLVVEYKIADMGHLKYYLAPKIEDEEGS

[2] = biological target: T2, human Wuho protein (hWH) tagged with V5 and hexahistidine epitopes (human) (UniProt P57081); assay: co-IP; same anti-V5 bead-bound proteins of hWH-V5-His6 cells, partners detected by western blot
T2 sequence: T1 sequence

[3] = biological target: T3, hWH with a C-terminal hexahistidine tag (human) (UniProt P57081); assay: pull-down; purified proteins, His6-tagged protein held on Ni(II)-NTA beads, partner detected by western blot; both purified
T3 sequence: T1 sequence

“flap endonuclease 1 (FEN1), endogenous (from UniProt P39748 1-380) (enzyme)” was tested, and the binding [1] was “binds” and the binding [2] was “binds”.

“PCNA with a C-terminal FLAG tag (from UniProt P12004 1-261)” was tested, and the binding [3] was “no binding”.

Reference: PMC4709127, “Wuho Is a New Member in Maintaining Genome Stability through its Interaction with Flap Endonuclease 1”
